Reference: PMC12442679
No constants are given. Whether binding was seen depends on the method and setting. In cells and extracts the contact can be indirect. Some results given as binding are weak or reduced against the parent protein; the word gives no strength.

By UniProt entry, the sequences of proteins in these tests, tags left out.
UniProt Q9TSV5: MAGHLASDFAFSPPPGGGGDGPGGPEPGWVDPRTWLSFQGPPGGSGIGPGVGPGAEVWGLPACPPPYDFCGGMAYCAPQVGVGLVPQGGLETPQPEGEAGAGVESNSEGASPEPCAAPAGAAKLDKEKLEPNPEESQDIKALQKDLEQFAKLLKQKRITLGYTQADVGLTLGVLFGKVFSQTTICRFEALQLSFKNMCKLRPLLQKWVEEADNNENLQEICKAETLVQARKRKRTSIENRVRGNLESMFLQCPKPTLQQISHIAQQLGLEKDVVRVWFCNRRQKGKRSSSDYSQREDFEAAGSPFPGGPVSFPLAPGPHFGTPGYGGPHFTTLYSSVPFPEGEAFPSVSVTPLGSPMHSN

Biological target: POU5F1 (pig (endogenous in pEPSCs)) (UniProt Q9TSV5)
Assay: co-IP; endogenous POU5F1 in pEPSCs immunoprecipitated with a POU5F1 antibody; Western blot for FOXH1 and POU5F1

B1: FOXH1 (FAST1, forkhead activin signal transducer 1) (protein, UniProt F1RSP3 1-354)
chain: MGPCSNPRLELPGGQSPSEPPKRRKKRYLRHDKPPYTYLAMIALVIQAAPSRRLKLAQIIRQVQAVFPFFRDDYEGWKDSIRHNLSSNRCFRKVPKDPAKPQAKGNFWAVDVSLIPAEALRLQNTALCRRWQSRGARGAFAKDLGPYVLHGRPYRPPSPQPQPCEGFSIKSLLGDSREGAPRSSPGRSGSQGSGEEEVPLPVLPSRRPPWPLCPLPGSLSAEGETSQGGTSRPEARAWPLHLLQGTPDPGGLAGGGHRASLWGQLPTSYLPIYTPNVVMPLAPLPPPSCPGCPPSTSTAYWRVAPETHGPPGLLWDLDALFQGVPPNKSIYDVWVSQPRDLAAPTPGWLLSDSL
  binding: binds
